Laboratory results published in US5175254 (dated 1992).

Test: Boc solid-phase peptide synthesis; polyacrylic resin (EP 0 079 812 / EP 0 081 408), amidified with ethylene diamine; symmetrical anhydride
Conditions: whole synthesis

Row | Substance | crude yield | isolated yield (based on the starting amino groups of the support)
1 | CSDSEKLNLDSI-OH | 58.6% | 
2 | pyro-Glu-His-Trp-Ser-Tyr-DTrp-Leu-Arg-Pro-Gly |  | 51%

No end group written: not given here.
